The other results are listed elsewhere or left out.

Protein sequences, listed by entry. Tags and fused reporters are not part of them.
UniProt Q0JBA9, entry or part of it: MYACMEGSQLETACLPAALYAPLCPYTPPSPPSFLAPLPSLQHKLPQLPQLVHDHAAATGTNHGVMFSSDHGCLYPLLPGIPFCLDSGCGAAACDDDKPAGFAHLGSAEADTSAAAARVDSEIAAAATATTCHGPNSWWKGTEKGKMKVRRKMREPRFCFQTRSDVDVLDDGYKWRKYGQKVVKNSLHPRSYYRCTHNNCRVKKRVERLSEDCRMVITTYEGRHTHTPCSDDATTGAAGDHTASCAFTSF

This assay deals with OsWRKY34 (Oryza sativa, UniProt Q0JBA9 1-250). In words: protein-binding microarray (RPBM); PBS, 2% BSA, 51.3 ng/ul salmon testes DNA, 50 uM zinc acetate, 200 nM TF, 25 C, 1 h; high values mean tight binding. As to conditions: protein: recombinant; tags: N-terminal polyhistidine and DsRed monomer fusion (pET32a); label: CyDye5-dUTP incorporated in the synthesized complementary strand; 3' TTTTT single-stranded linker to array surface; dsDNA, one strand shown. The gist of the method:
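The binding signal is fluorescence intensity per array feature (arbitrary units). Readings came from an Axon 4000B scanner after a washed, 2% BSA-blocked, double-stranded custom Agilent array had been incubated for 1 h at 25 °C with 200 nM protein and 50 µM zinc acetate. The protein was a Ni–NTA-purified transcription factor fused N-terminally to polyhistidine and DsRed, expressed in E. coli BL21-CodonPlus.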
As for “ATTTTGCCCCTTGTTGATCACCACAGAAGAACATGTGCTACGGAGTCACCTAGTGCAG”, the binding signal is 9790 fluorescence intensity (a.u.).

Turning to “TCGCCGTTTAATTTCCTCACCTATCTCCATTTCTCGTCCACGGAGTCACCTAGTGCAG”, the binding signal was 8900 fluorescence intensity (a.u.). Consider “TCACCAACCATCTCATCTCTCTCACCATTTCATTTTATTTCGGAGTCACCTAGTGCAG”, for which the binding signal was 9480 fluorescence intensity (a.u.). For “TCCGCGGCGCAATCGTTTATATATATGTCTTGATCGATCCCGGAGTCACCTAGTGCAG” the value was 8300 fluorescence intensity (a.u.). As to “TTTTTTTGCCGGCAGAGTTTTGGCTCCGAATTACATGCCCCGGAGTCACCTAGTGCAG”, the binding signal was 8030 fluorescence intensity (a.u.).

With “CTTCACCTCACCTATCGGCGATCGCGCCCGAACCTACGCACGGAGTCACCTAGTGCAG”, the binding signal is 8600 fluorescence intensity (a.u.). Regarding “TGGCATTTTTTTTTTTGGAATTGAGCACTTGTTAATGTCACGGAGTCACCTAGTGCAG”, the binding signal was 8110 fluorescence intensity (a.u.).

Consider “GGGGATTTCTCATTTGGGTACTGTTTAGGTTCCAACTTTTCGGAGTCACCTAGTGCAG”, for which the binding signal is 8370 fluorescence intensity (a.u.). The same measure for “ATATCGGCTTTGCTCGCTGTTTCTTTCCTTTGTATTCTCGCGGAGTCACCTAGTGCAG”: 12700 fluorescence intensity (a.u.); for “ATAAATTCTTCTAATTATTTGGTTGCCCTATTTTGTTTTTCGGAGTCACCTAGTGCAG”: 8600 fluorescence intensity (a.u.).

Consider “TTGGTTGCATGGCCACAATTTTATCCATATATCCATTCCACGGAGTCACCTAGTGCAG”, for which the binding signal was 8480 fluorescence intensity (a.u.). Regarding “ACTATCGAGGAGACATTTACTTGTTGTTTGCGTCTCACTTCGGAGTCACCTAGTGCAG”, the binding signal is 8500 fluorescence intensity (a.u.). The same measure for “GCGGCGCGCGGTTGGGGAGGGGCGGGGACGCGTGAGAGCGCGGAGTCACCTAGTGCAG”: 11600 fluorescence intensity (a.u.); for “TATATATATGTGTGTTTTACGCCCTCTGTTTTATTTAAAACGGAGTCACCTAGTGCAG”: 13100 fluorescence intensity (a.u.); for “AATACTTTCTGTATCTACCGCCATTACGTGATCACAGATTCGGAGTCACCTAGTGCAG”: 8110 fluorescence intensity (a.u.).

“CCACGAAGCGAGTTGAAATTTGGTTTGGTCTCCATCACAACGGAGTCACCTAGTGCAG”: the binding signal was 8590 fluorescence intensity (a.u.).

For “TGCAGATACAGCCATATACCTTTGCTCAATGCCTATCCTACGGAGTCACCTAGTGCAG”, the binding signal is 8660 fluorescence intensity (a.u.). Take “TCCGTCGTTCCGTGTTGGCCCACGCTGCCGCCGCGCGCCGCGGAGTCACCTAGTGCAG”: the binding signal was 9390 fluorescence intensity (a.u.). For “GTTTTATATTACAAATCGCTTTAACATTCTTTTTTAAAAACGGAGTCACCTAGTGCAG” the value was 9950 fluorescence intensity (a.u.); for “AATGTGGGAGAAGGGGAGGAGAGAGGGGAGGGGAGGGGACCGGAGTCACCTAGTGCAG”, 16500 fluorescence intensity (a.u.); for “AGCATCTTCGCTTGTGGTGCCGCACTGCCACCTACCCATCCGGAGTCACCTAGTGCAG”, 8110 fluorescence intensity (a.u.). For “TCTACTGTGTGTGTGTGTGTGTGTGTTCACTACTGGATAGCGGAGTCACCTAGTGCAG” the value was 10000 fluorescence intensity (a.u.). Consider “ATACCTCGTACATTTCTCAATCTCCTCACCTCCTTAGTCCCGGAGTCACCTAGTGCAG”, for which the binding signal is 9960 fluorescence intensity (a.u.). For “GATTTGTTTCCTACATGTTGCTTTGATTCATAGAAAAGAACGGAGTCACCTAGTGCAG” the value was 9460 fluorescence intensity (a.u.); for “TGTATGATGCTGTTGACTTTTTATCCAACGTTTGACCATCCGGAGTCACCTAGTGCAG”, 21200 fluorescence intensity (a.u.).

Turning to “CCTCTACCTCTAGATCTATATATTGTCTGCTATCAGCTTACGGAGTCACCTAGTGCAG”, the binding signal is 8960 fluorescence intensity (a.u.). For the sequence “AGCTCCGGTACTCGTCCTCTGCTTTGACCCGTCCACTAGACGGAGTCACCTAGTGCAG”, the binding signal is 10300 fluorescence intensity (a.u.).

“CATAATATATCTTGTCAAACTTTTTCATATTTTTATTTAACGGAGTCACCTAGTGCAG”: the binding signal was 8192 fluorescence intensity (a.u.).

In the case of “CACACCTTAGTACGTTATCTCTCTAATTGCTACATTTTAGCGGAGTCACCTAGTGCAG”, the binding signal was 8610 fluorescence intensity (a.u.). For “ACCCACACACAAACGCCTCTACGTACACTCTACCCACACCCGGAGTCACCTAGTGCAG” the value was 8460 fluorescence intensity (a.u.); for “TAGTGGGTGGGAGTGGGATAGGGCGGCCCAGAGGAGAATACGGAGTCACCTAGTGCAG”, 9000 fluorescence intensity (a.u.). Consider “CGCCGCGGCGTCCTCCACGCCGCCTGTTGTTCTTGCCTCCCGGAGTCACCTAGTGCAG”, for which the binding signal is 8830 fluorescence intensity (a.u.).

Regarding “CTGCTTTCTTTCCTGTGCTATGGATCGAATTTTCTCTTTACGGAGTCACCTAGTGCAG”, the binding signal is 9410 fluorescence intensity (a.u.). As to “GCCCGCCATACGATTTTACCAGTGGTAAAAACCTGTGTCTCGGAGTCACCTAGTGCAG”, the binding signal was 8580 fluorescence intensity (a.u.). On to “TGGATAGCAGTTCAATTCTCTTTTGGTTTATACCTTCCTACGGAGTCACCTAGTGCAG”, for which the binding signal was 11000 fluorescence intensity (a.u.).

For “CCCGTGCTTGTCGCTTCACGTTGTTTTCGCCTGTTCAAGACGGAGTCACCTAGTGCAG”, the binding signal was 10900 fluorescence intensity (a.u.). In the case of “TCCCATCCACAGTAACTTCGCTGTATCCCCATTCGCTGTCCGGAGTCACCTAGTGCAG”, the binding signal is 11000 fluorescence intensity (a.u.). The same measure for “AGCCCGATTTTCTGTTCATTTCCACGTTTGATTTGGTGCACGGAGTCACCTAGTGCAG”: 8850 fluorescence intensity (a.u.); for “ACGACCGTTCATTTCTTTCCCACTTCCCCGCGAGACCGCCCGGAGTCACCTAGTGCAG”: 10500 fluorescence intensity (a.u.). For the sequence “GGGACGGGCTTTTTCCGACCGTTTTATCGGTAACCATATTCGGAGTCACCTAGTGCAG”, the binding signal is 8110 fluorescence intensity (a.u.).

On to “AACTGGTTGGCATGTCCGCATCTAATCGACCTTAGGATCTCGGAGTCACCTAGTGCAG”, for which the binding signal is 9100 fluorescence intensity (a.u.). As for “TTTTGGGTCGCCAGCCTCCTGTCGTATCCGATGCAGTATTCGGAGTCACCTAGTGCAG”, the binding signal is 8290 fluorescence intensity (a.u.).

For the origin of these results see publication PMC7819943, “Rice protein-binding microarrays: a tool to detect cis-acting elements near promoter regions in rice”.
